Drawing on publication PMC4585835 (Scientific Reports, 2015), this text covers Ki for 2 compounds.

The target of assay [1] is T1, human thrombin (Homo sapiens, UniProt P00734).
T1 construct: purchased National Institute for the Control of Pharmaceutical and Biological Products (Beijing, China)
On the set-up: method as in PMID 24354772. The note with it: Chromozym TH, excerpted from a previously published study ref 15; cited from earlier work.

The target of assay [2] is T1, human thrombin. Nature of the assay: Inhibition of human thrombin-catalyzed hydrolysis of Chromozym TH. Type of assay: biochemical. The note with it: 25 °C, pH 7.4. The protocol:
The inhibition constant (Ki) was determined as reported previously. A 0.05 mL of peptide solution (concentration 10, 25, 50, 100, 150, 500 and 1000 nM, respectively) was added to 0.4 mL mixture of Hepes buffer (10 mM Hepes, 10 mM Tris, 0.1 M NaCl, 0.1% PEG 6000, pH 7.4) and bovine or human thrombin (0.25 NIH). The resulting solution was incubated at 25 °C for 2 min, followed by the addition of 0.05 mL Chromozym TH (concentration 25, 33, 40, 50, 100, 125, 200, 330, 500, and […], respectively). The absorbance at 405 nm was measured using a Beckman DU640 spectrometer. The inhibition constant (Ki) was determined using the following equation (Eq.1) originally developed for competitive inhibition processes[25]:
Herein, S is the initial substrate concentration; I is the inhibitor concentration; v is the initial steady-state velocity; Vmax is the limiting maximal velocity; and Km is the dissociation constant of the complex.

Like-named read-outs stand apart in the source and are kept apart here.

As to `CC[C@H](C)[C@H](NC(=O)[C@@H]1CCCN1C(=O)[C@H](CCC(=O)O)NC(=O)[C@H](Cc1ccccc1)NC(=O)[C@H](CC(=O)O)NC(=O)CNC(=O)[C@H](CCC(N)=O)NC(=O)CNC(=O)CNC(=O)CNC(=O)CNC(=O)[C@@H]1CCCN1C(=O)[C@H](CCCNC(=N)N)NC(=O)[C@@H]1CCCN1C(=O)[C@H](N)Cc1ccccc1)C(=O)N1CCC[C@H]1C(=O)N[C@@H](CCC(=O)O)C(=O)N[C@@H](CC(=O)O)C(=O)N[C@@H](C)C(=O)N[C@@H](Cc1ccc(O)cc1)C(=O)N[C@@H](CC(=O)O)C(=O)N[C@@H](CCC(=O)O)C(N)=O` [Peptide 1], in assay [1], the Ki (as a rule, the equilibrium dissociation constant of an inhibitor or competing ligand from its target) was 5.8 ± 0.55 nM. The compound `CCCCCCCCCCCCCCCCCC(=O)NCCCC[C@H](NC(=O)CNC(=O)[C@@H]1CCCN1C(=O)[C@H](CCCNC(=N)N)NC(=O)[C@@H]1CCCN1C(=O)[C@H](N)Cc1ccccc1)C(=O)NCC(=O)NCC(=O)N[C@@H](CCC(N)=O)C(=O)NCC(=O)N[C@@H](CC(=O)O)C(=O)N[C@@H](Cc1ccccc1)C(=O)N[C@@H](CCC(=O)O)C(=O)N1CCC[C@H]1C(=O)N[C@H](C(=O)N1CCC[C@H]1C(=O)N[C@@H](CCC(=O)O)C(=O)N[C@@H](CC(=O)O)C(=O)N[C@@H](C)C(=O)N[C@@H](Cc1ccc(O)cc1)C(=O)N[C@@H](CC(=O)O)C(=O)N[C@@H](CCC(=O)O)C(N)=O)[C@@H](C)CC` [Peptide S2] gave a Ki in assay [2] of 11.7 ± 0.46 nM.
